Data from publication PMC6554275.
Results are given in words; binding and its absence hold for the method and conditions named. Binding seen in cells or lysates may run through a third protein. Binding can be weak; no strength is given. Where a sequence is shown, tags or fusion partners need not be part of it.

T1: wild-type human myc-tagged SFRP3 (human) (UniProt Q92765)
T1 sequence: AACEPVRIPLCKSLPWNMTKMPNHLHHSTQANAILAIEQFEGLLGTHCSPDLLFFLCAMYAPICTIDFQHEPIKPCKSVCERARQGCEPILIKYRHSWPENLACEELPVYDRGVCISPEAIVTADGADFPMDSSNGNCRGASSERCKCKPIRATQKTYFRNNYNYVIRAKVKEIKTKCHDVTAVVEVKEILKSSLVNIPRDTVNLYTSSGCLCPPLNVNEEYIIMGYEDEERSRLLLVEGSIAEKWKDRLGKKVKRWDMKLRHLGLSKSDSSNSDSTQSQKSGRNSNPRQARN


Key:
[1] = molecular target: T1, wild-type human myc-tagged SFRP3 (human); assay: co-IP; HEK293 cells transiently co-transfected with SFRP3-myc and V5/HA-tagged Wnt; lysis in 150 mM NaCl, 50 mM Tris pH 8, 1% NP40; anti-myc conjugated beads 2 h at 4 °C; blots with anti-myc, anti-V5, anti-HA
[2] = molecular target: GST-tagged NRT domain of SFRP3 (not stated (human or mouse cDNA cloned)); assay: pull-down; GST-tagged forms of SFRP3; HEK293 cells transfected with empty, Wnt2-V5, Wnt5a-V5 or Wnt7b-HA constructs; blots with anti-V5 and anti-HA

binding [1] | binding [2] | Molecule
binds |  | Wnt7b-HA (ligand)
 | binds | Active Wnt5a-V5 (ligand, UniProt P41221 62-380) IIGAQPLCSQLAGLSQGQKKLCHLYQDHMQYIGEGAKTGIKECQYQFRHRRWNCSTVDNTSVFGRVMQIGSRETAFTYAVSAAGVVNAMSRACREGELSTCGCSRAARPKDLPRDWLWGGCGDNIDYGYRFAKEFVDARERERIHAKGSYESARILMNLHNNEAGRRTVYNLADVACKCHGVSGSCSLKTCWLQLADFRKVGDALKEKYDSAAAMRLNSRGKLVQVNSRFNSPTTQDLVYIDPSPDYCVRNESTGSLGTQGRLCNKTSEGMDGCELMCCGRGYDQFKTVQTERCHCKFHWCCYVKCKKCTEIVDQFVCK
 | binds | Active Wnt2-V5 (ligand, UniProt P09544 26-360) SWWYMRATGGSSRVMCDNVPGLVSSQRQLCHRHPDVMRAISQGVAEWTAECQHQFRQHRWNCNTLDRDHSLFGRVLLRSSRESAFVYAISSAGVVFAITRACSQGEVKSCSCDPKKMGSAKDSKGIFDWGGCSDNIDYGIKFARAFVDAKERKGKDARALMNLHNNRAGRKAVKRFLKQECKCHGVSGSCTLRTCWLAMADFRKTGDYLWRKYNGAIQVVMNQDGTGFTVANERFKKPTKNDLVYFENSPDYCIRDREAGSLGTAGRVCNLTSRGMDSCEVMCCGRGYDTSHVTRMTKCGCKFHWCCAVRCQDCLEALDVHTCKAPKNADWTTAT
